Measured values taken from publication PMC6755085, “Cyclic oligoadenylate signalling mediates Mycobacterium tuberculosis CRISPR defence” (Nucleic Acids Research, 2019).
Results are given in words; binding and its absence hold for the method and conditions named. Binding seen in cells or lysates may run through a third protein. Here binding means that the protein was enriched with, or labelled near, the bait; the list need not be complete. Sequences can lack the tags named with a protein.

Chains of the proteins cited; added tags and fusions are not shown. Lines headed by an entry give the natural chain unless they say otherwise; changes in a name come on top.
UniProt P9WJF9: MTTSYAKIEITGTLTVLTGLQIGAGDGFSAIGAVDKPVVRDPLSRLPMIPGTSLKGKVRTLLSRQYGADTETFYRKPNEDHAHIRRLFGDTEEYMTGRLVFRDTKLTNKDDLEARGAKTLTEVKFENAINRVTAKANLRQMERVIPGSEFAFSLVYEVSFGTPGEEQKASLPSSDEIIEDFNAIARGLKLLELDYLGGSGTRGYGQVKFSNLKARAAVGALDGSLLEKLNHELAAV

B1: Mycobacterium tuberculosis Csm5 (protein, UniProt P9WJF4 1-375)
chain: MNTYLKPFELTLRCLGPVFIGSGEKRTSKEYHVEGDRVYFPDMELLYADIPAHKRKSFEAFVMNTDGAQATAPLKEWVEPNAVKLDPAKHRGYEVKIGSIEPRRASRGRGGRMTRKKLTLNEIHAFIKDPLGRPYVPGSTVKGMLRSIYLQSLVHKRTAQPVRVPGHQTREHRQYGERFERKELRKSGRPNTRPQDAVNDLFQAIRVTDSPALRTSDLLICQKMDMNVHGKPDGLPLFRECLAPGTSISHRVVVDTSPTARGGWREGERFLETLAETAASVNQARYAEYRAMYPGVNAIVGPIVYLGGGAGYRSKTFVTDQDDMAKVLDAQFGKVVKHVDKTRELRVSPLVLKRTKIDNICYEMGQCELSIRRAE

Target: T1, Mycobacterium tuberculosis Csm4 (Cas5), His6-tagged (Mycobacterium tuberculosis) (UniProt P9WJF6)
T1 sequence: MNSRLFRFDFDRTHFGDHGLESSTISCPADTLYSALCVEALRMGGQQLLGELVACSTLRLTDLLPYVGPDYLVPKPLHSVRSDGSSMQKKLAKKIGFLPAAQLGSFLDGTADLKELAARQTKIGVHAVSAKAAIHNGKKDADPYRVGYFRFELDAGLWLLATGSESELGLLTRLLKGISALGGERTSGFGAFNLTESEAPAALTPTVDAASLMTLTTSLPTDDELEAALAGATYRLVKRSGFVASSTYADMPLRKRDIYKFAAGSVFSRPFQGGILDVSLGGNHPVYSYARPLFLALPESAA
Test: affinity purification with mass spectrometry

Molecule | binding
Mycobacterium canettii Csm2 (Cas11) | binds
Mycobacterium tuberculosis Csm3 (Cas7) (from UniProt P9WJF9) | binds
B1 | binds
